Series [1] deals with NF-kB p65/p50 heterodimer (RelA/NFKB1) (Homo sapiens). The series is described as follows: EMSA. The following applies: protein in an extract. Background: In EMSA bound probe runs differently from free probe, usually more slowly.
For series [2], the target named is T1, NF-kB p50/p50 homodimer (NFKB1) (Homo sapiens) (UniProt P19838).
T1 sequence (looked up, limits assumed): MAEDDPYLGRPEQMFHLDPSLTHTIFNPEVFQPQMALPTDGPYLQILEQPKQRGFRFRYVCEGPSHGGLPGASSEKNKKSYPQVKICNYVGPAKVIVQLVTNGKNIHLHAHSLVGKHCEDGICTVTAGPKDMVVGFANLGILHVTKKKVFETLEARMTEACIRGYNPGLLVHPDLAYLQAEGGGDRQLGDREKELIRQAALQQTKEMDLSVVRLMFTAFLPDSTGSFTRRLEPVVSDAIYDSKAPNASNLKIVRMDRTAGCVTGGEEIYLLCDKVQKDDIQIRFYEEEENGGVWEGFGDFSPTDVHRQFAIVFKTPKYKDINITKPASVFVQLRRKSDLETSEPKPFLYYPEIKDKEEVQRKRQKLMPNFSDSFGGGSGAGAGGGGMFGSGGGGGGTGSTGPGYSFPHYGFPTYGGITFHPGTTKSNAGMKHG
Description: EMSA. The following applies: protein in an extract.

Chains of the proteins cited; added tags and fusions are not shown. A line that says so, or that is headed by a name, gives the form on record, which may keep a tag or linker. Residues count along the entry.
UniProt P08047, 2-785: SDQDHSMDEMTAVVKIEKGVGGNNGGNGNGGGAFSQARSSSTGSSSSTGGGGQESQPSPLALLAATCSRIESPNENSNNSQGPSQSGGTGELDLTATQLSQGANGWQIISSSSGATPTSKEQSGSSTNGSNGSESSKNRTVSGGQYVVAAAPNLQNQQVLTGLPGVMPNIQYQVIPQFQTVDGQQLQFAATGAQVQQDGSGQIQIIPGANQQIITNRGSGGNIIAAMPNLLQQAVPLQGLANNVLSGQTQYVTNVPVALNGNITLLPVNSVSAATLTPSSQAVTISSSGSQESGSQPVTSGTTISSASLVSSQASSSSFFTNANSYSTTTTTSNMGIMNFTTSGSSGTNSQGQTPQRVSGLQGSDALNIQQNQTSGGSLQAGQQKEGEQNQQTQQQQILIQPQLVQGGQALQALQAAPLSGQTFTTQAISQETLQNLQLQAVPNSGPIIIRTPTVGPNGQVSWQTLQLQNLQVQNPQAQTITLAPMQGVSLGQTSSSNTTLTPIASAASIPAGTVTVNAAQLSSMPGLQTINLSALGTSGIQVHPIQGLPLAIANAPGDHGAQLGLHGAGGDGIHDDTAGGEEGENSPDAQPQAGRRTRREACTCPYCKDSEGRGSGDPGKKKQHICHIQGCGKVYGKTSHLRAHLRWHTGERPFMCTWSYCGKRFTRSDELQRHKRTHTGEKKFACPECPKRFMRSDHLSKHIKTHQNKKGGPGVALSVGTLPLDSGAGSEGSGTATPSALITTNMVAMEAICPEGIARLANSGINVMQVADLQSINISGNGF
NF-kB cRel/p50 heterodimer (Homo sapiens), one chain, as listed by the source: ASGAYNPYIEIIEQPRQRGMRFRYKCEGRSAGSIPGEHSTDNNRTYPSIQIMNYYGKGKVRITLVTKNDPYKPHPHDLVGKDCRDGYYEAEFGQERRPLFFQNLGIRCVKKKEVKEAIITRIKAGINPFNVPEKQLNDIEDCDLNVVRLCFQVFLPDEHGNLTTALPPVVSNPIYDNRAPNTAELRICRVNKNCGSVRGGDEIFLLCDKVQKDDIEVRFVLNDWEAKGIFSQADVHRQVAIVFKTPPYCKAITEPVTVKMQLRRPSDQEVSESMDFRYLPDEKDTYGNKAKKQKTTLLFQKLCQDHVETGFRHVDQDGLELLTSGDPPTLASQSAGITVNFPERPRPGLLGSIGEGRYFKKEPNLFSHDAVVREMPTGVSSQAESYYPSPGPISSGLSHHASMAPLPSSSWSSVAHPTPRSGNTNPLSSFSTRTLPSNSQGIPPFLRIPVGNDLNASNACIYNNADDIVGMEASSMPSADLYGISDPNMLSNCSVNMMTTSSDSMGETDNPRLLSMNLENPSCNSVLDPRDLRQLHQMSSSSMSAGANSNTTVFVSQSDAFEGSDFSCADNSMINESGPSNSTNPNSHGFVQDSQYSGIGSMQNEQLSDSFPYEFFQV
NF-kB p65/p50 heterodimer (RelA/NFKB1) (Homo sapiens), one chain, as listed by the source: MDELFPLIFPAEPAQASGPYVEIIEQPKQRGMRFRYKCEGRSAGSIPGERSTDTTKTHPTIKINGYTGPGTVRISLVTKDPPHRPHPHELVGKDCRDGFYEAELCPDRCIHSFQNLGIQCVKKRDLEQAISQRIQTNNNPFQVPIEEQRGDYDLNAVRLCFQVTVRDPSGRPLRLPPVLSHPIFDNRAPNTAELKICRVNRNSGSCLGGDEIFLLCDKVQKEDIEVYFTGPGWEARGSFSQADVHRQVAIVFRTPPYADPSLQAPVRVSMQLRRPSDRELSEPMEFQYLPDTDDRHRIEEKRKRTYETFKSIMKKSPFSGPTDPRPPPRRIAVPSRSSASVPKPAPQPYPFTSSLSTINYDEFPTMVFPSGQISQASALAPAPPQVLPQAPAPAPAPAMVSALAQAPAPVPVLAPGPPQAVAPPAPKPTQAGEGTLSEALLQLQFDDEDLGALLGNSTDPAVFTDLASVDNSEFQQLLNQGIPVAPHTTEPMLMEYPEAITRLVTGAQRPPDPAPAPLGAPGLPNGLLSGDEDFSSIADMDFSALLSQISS

In series [3] the target is T2, Oct-1 (POU2F1) (UniProt P14859).
T2 sequence (looked up, limits assumed): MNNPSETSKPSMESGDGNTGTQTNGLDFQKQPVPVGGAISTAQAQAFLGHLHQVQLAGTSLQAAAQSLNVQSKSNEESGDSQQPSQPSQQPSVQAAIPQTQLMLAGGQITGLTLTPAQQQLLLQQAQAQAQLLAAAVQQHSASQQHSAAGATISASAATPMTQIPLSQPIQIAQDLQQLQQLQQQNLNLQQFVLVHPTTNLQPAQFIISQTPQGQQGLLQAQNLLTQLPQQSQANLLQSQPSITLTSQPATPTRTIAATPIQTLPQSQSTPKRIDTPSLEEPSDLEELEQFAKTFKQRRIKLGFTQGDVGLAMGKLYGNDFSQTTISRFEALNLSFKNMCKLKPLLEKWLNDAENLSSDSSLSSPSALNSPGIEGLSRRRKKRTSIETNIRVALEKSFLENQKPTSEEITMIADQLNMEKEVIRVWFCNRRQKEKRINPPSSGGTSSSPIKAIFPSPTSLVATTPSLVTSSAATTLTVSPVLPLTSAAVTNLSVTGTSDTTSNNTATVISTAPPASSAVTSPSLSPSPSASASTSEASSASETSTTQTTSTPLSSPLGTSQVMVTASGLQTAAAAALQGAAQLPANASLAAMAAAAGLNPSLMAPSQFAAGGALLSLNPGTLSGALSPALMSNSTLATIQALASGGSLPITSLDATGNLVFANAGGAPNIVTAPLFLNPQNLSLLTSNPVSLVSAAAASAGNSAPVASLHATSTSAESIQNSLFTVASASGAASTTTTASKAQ
The series is described as follows: EMSA. The following applies: protein in an extract, variant of decoy 153/154 E-Z.

Series [4] addresses T1, NF-kB p50/p50 homodimer (NFKB1) (Homo sapiens). Description: competition with a labelled probe. The following applies: score 100 = less than 50% competition at any ratio tested, protein in an extract.
Series [5] has as its system NF-kB cRel/p50 heterodimer (Homo sapiens). The series is described as follows: EMSA. The following applies: binding to p65/p50 and cRel/p50 generally equivalent; protein in an extract.
Series [6] addresses SP1 (UniProt P08047). The series is described as follows: ELONA. The following applies: full PS, both strands; protein in an extract; variant of decoy 153/154 E-Z.
The subject of series [7] is NF-kB p65/p50 heterodimer (RelA/NFKB1) (Homo sapiens). The series is described as follows: competition with a labelled probe. The following applies: PS all linkages; no competition at up to 10-fold excess over IL-6 probe; protein in an extract; protein details: endogenous, nuclear extract of THP-1 cells.
[8] abbreviates: scrambled control, score 100 = under 50% competition.

This is an account of results in patent publication US20070078102.

Results from cells or extracts need not show a direct contact. For some assays here: A negative result means that nothing was seen under these conditions. For some assays here: Protein sequences can lack the tags named with them. For some assays here: For at least one entry, the source does not settle the construct or the ends of the probe. A value given as a limit tells only on which side of the number the result lay.

In series [1] (variant of decoy 263 H-Z), “TTGAGGATTTCCAGGC (double strand) [decoy 273 H-Z' (-3'2BP)]” came in with an IC50 (fold molar excess) greater than 100.

Sequence “TGAGGACTTTCCAGGC (double strand) [decoy 289]” returned an IC50 (fold molar excess) in series [2] (variant of decoy 153/154 E-Z) greater than 100.

Take “AGGACTTTCCAGGC (double strand) [decoy 293]”: in series [1] (variant of decoy 153/154 E-Z), the IC50 (fold molar excess) is greater than 100.

“TGTGGGATTTTCCCATGACTC (double strand) [IL-6 promoter NF-kB probe]”: in series [1] (p65/p50 complex identified by antibody supershift, competed by decoy, not by scramble, label: 32P 5'-end), the binding result was “binds”.

Consider “CAACGGACTTTCCACAC (double strand) [decoy 187 E-CA FLANK]”, for which, in series [1], the IC50 (fold molar excess) was greater than 100.

Regarding “TGAGGACTTTCCAGG (double strand) [decoy 283 E-Z-3]”, the IC50 (fold molar excess) in series [1] (variant of decoy 153/154 E-Z) is greater than 100.

For the sequence “AGTTGAGGACTTTCCAGGC (double strand) [153/154 H3/H3]”, the IC50 (fold molar excess) in series [2] (PS at the 3 3'-most linkages of each strand, variant of decoy 153/154 E-Z) was greater than 100. In addition, the binding result in series [3] (PS at the 3 3'-most linkages of each strand) is recorded as “no binding”.

In turn, “TCGACTTTCCCTC (double strand) [decoy 213 G-V]” had an IC50 (fold molar excess) in series [1] greater than 100.

As for “AGTTGAGACTTTCCAGGC (double strand) [decoy 157 F-Z]”, the IC50 (fold molar excess) in series [1] is greater than 100.

Take “GGACTTTCC (double strand) [decoy 169 E core]”: the IC50 (fold molar excess) in series [1] (variant of decoy 153/154 E-Z) and in series [4] (PS) was greater than 100 in each case.

In the case of “TTGCCGTACCTGACTTAGCC (double strand) [scrambled 107]”, the IC50 (fold molar excess) in series [2] (setting [8]) and in series [1] (setting [8]) was greater than 100 in each case.

Regarding “AGGACTTTCCAGGCTC (double strand) [decoy 297]”, in series [1], the IC50 (fold molar excess) is greater than 100.

For the sequence “GAGGACTTTCCAG (double strand) [decoy 285 E-Z-6]”, the IC50 (fold molar excess) in series [1] (variant of decoy 153/154 E-Z) was greater than 100.

As for “AGTTGAGGACTTTCCAGGC (double strand) [decoy 153/154 E-Z]”, the binding result in series [5] is “binds”.

For the sequence “GTTGAGGACTTTCCAGGC (double strand) [decoy 287]”, the IC50 (fold molar excess) in series [1] (variant of decoy 153/154 E-Z) is greater than 100.

The sequence “ATGGACTTTCCGT (double strand) [decoy 117 E-U]” displayed an IC50 (fold molar excess) in series [2] greater than 100.

On to “AGTTGAGGACTTTCCAGGC (double strand) [153/154 PO/H5]”, for which the IC50 (fold molar excess) in series [4] (strand 153 all PO, strand 154: 5 3'-most linkages PS) was greater than 100.

In series [1], “CTCGGACTTTCCTCA (double strand) [decoy 241 E-W']” displayed an IC50 (fold molar excess) greater than 100.

Turning to “TGAGGACTTTCCAGGCTC (double strand) [decoy 295]”, in series [2], the IC50 (fold molar excess) was greater than 100.

For “CAGTGGACTTTCCACTG (double strand) [decoy 189 E-CAGT FLANK]”, the IC50 (fold molar excess) in series [1] is greater than 100.

Consider “AGTTGAGGACTTTCCAGGC (double strand) [153/154 H6/H6]”, for which the IC50 (fold molar excess) in series [4] (6 3'-most linkages PS on both strands) was greater than 100.

In series [2] (PS at the 7 3'-most linkages of each strand, variant of decoy 153/154 E-Z), “AGTTGAGGACTTTCCAGGC (double strand) [153/154 H7/H7]” showed an IC50 (fold molar excess) greater than 100.

On to “AGTTGAGGACTTTCCAGGC (double strand) [153/154 H5/H5]”, for which the IC50 (fold molar excess) in series [4] (5 3'-most linkages PS on both strands) is greater than 100.

“TCGATTTCCCTC (double strand) [decoy 233 K-V]” yielded an IC50 (fold molar excess) in series [1] greater than 100.

“CAGTAGTATGTGAGCCTGC (double strand) [scrambled ODN 103]”: the IC50 (fold molar excess) in series [2] (setting [8]) and in series [1] (setting [8]) was greater than 100 in each case.

As to “AGTTGAGGACTTTCCAGGC (double strand) [153/154 PS/PS]”, the binding result in series [6] is “no binding”.

For the sequence “TCGGATTTCCCTC (double strand) [decoy 229 I-V]”, the IC50 (fold molar excess) in series [1] was greater than 100.

Regarding “CAGTAGTATGTGAGCCTGC (double strand) [scrambled ODN 103 PS/PS]”, the binding result in series [7] is “no binding”.

For the sequence “CTGGACTTTCCTC (double strand) [decoy 179 E-X]”, the IC50 (fold molar excess) in series [1] was greater than 100.

Consider “AGTTGAGGACTTTCCAGGC (double strand) [153/154 PO]”, for which the binding result in series [3] (full phosphodiester, both strands) was “no binding”.

For the sequence “TTGAGGATTTCCAGGCTC (double strand) [decoy 277 H-Z']”, the IC50 (fold molar excess) in series [1] was greater than 100.

In series [1], “TCGATTTCCTC (double strand) [decoy 231 J-V]” came in with an IC50 (fold molar excess) greater than 100.

“TCGGATTTCCTC (double strand) [decoy 227 H-V]” yielded an IC50 (fold molar excess) in series [2] greater than 100.

For the sequence “TTGAGGATTTCCAGGCT (double strand) [decoy 275 H-Z' (-3'1BP)]”, in series [1] (variant of decoy 263 H-Z), the IC50 (fold molar excess) is greater than 100.

Turning to “ATATGGACTTTCCTTAA (double strand) [decoy 185 E-AT FLANK]”, in series [1], the IC50 (fold molar excess) is greater than 100.

The sequence “AAGAGGACTTTCCAGAG (double strand) [decoy 183 E-AG FLANK]” showed an IC50 (fold molar excess) in series [1] greater than 100.

In turn, “GAGGACTTTCCAGGC (double strand) [decoy 291]” returned an IC50 (fold molar excess) in series [1] (variant of decoy 153/154 E-Z) greater than 100.

Sequence “TTGAGGACTTTCCAG (double strand) [decoy 173 E-Z-4]” came in with an IC50 (fold molar excess) in series [2] (variant of decoy 153/154 E-Z) greater than 100.

As to “AGGACTTTCCA (double strand) [decoy 171 E-A FLANK]”, in series [1], the IC50 (fold molar excess) is greater than 100.

On to “TTGAGGACTTTCCAGGC (double strand) [decoy 281 E-Z EVEN]”, for which the IC50 (fold molar excess) in series [2] (variant of decoy 153/154 E-Z) is greater than 100.

Sequence “AGTTGAGACTTTCCCAGGC (double strand) [decoy 159 G-Z]” registered an IC50 (fold molar excess) in series [1] greater than 100.

Turning to “CTCGGACTTTCCTGT (double strand) [decoy 177 E-W]”, the IC50 (fold molar excess) in series [2] is greater than 100.

For “AGTTGAGGACTTTCCAGGC (double strand) [153/154 H4/H4]”, in series [4] (4 3'-most linkages PS on both strands), the IC50 (fold molar excess) was greater than 100.
